The text below walks through data of paper PMC11998485.

The chains behind the UniProt entries cited, without tags or fusion partners.
UniProt P46934: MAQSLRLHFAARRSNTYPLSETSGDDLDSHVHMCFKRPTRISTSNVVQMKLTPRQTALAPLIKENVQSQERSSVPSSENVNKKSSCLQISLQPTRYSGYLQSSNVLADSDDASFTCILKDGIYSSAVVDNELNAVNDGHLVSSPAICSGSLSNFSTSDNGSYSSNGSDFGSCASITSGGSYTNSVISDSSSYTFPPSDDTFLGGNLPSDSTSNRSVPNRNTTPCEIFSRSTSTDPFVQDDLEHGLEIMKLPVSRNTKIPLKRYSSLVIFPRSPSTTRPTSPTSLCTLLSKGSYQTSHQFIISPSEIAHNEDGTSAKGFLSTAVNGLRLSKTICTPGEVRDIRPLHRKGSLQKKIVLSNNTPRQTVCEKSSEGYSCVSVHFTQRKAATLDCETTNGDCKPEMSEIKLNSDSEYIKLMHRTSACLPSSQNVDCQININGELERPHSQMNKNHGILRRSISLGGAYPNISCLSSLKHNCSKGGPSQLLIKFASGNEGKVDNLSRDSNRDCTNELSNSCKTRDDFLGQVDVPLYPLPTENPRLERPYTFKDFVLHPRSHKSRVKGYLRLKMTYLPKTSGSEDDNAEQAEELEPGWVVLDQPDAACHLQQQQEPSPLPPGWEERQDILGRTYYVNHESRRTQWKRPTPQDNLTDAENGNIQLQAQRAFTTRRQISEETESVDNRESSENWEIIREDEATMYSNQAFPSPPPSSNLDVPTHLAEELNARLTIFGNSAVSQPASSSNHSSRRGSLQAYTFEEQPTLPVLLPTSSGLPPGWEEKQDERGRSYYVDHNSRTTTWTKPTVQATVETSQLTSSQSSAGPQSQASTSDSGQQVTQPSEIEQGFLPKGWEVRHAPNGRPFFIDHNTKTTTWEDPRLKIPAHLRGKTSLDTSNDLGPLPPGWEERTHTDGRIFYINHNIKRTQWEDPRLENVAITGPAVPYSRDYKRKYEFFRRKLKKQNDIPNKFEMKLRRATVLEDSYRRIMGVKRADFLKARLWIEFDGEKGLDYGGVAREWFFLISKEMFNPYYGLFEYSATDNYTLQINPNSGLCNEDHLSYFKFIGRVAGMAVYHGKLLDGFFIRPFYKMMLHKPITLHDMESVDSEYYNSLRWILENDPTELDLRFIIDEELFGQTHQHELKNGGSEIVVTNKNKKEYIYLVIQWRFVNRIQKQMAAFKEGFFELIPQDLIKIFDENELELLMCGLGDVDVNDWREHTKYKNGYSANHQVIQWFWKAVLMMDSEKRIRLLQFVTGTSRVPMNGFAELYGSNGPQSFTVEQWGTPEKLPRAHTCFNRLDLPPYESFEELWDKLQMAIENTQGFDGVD

For the assay, the target named is T1, GST-fused UL56 ectodomain (amino acids 1-215) (HSV-1) (UniProt P10240).
T1 sequence: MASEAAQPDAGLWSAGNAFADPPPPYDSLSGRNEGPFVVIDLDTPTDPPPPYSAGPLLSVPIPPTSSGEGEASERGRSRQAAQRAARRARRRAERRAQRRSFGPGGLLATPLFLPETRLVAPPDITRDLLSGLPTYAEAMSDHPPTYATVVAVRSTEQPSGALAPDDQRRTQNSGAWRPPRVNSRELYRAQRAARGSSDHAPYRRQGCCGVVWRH
The experiment in a line: affinity purification with mass spectrometry; GST or GST-UL56 (1-215) expressed in 293T cells; lysis in 1% CHAPS in TBS plus proteinase inhibitors; glutathione beads, extensive washes; eluate on SDS-PAGE with Coomassie blue; bands identified by MS/MS.

No constants are given. Whether binding was seen depends on the method and setting. In cells and extracts the contact can be indirect. These calls come from enrichment with a bait or labelling near it, and not all partners need be listed. Tags and fused reporters may be left off the sequences shown.

Turning to “NEDD4 (from UniProt P46934 1-1319) (enzyme)”, the binding entry is reported as “binds”.
